Assay results as given in article PMC7340788, “Structure of the yeast Swi/Snf complex in a nucleosome free state” (Nature Communications, 2020).
No constants are given. Whether binding was seen depends on the method and setting. Binding seen in cells or lysates may run through a third protein. These calls come from enrichment with a bait or labelling near it, and not all partners need be listed.

By UniProt entry, the sequences of proteins in these tests, tags left out.
UniProt P18888: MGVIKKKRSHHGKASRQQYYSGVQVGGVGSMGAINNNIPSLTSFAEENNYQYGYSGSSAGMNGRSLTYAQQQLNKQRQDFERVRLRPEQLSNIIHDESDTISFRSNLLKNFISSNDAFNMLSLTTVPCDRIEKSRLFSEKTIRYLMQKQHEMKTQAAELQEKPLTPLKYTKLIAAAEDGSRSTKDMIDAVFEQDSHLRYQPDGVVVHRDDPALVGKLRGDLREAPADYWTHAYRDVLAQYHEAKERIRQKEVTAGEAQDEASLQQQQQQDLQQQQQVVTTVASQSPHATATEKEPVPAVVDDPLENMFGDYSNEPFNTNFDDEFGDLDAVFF
UniProt P35189: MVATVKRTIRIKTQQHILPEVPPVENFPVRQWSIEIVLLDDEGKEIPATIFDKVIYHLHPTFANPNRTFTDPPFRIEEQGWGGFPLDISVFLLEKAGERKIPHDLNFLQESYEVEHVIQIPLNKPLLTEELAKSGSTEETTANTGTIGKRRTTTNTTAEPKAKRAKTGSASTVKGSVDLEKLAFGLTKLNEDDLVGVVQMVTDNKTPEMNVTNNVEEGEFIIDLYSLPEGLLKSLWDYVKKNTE
UniProt Q05123: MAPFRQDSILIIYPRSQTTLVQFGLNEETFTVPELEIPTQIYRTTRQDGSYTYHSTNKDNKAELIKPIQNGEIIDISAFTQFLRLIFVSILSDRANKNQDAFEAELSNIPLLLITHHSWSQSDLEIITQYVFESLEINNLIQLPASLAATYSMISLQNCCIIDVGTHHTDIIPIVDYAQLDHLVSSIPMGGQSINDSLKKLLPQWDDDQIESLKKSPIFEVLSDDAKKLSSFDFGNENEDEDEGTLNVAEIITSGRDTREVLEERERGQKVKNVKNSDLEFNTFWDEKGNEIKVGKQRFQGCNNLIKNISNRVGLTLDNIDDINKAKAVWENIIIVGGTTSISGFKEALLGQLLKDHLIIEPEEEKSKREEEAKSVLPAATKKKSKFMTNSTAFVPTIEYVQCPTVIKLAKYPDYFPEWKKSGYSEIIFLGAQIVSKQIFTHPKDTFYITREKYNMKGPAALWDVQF
UniProt Q12406: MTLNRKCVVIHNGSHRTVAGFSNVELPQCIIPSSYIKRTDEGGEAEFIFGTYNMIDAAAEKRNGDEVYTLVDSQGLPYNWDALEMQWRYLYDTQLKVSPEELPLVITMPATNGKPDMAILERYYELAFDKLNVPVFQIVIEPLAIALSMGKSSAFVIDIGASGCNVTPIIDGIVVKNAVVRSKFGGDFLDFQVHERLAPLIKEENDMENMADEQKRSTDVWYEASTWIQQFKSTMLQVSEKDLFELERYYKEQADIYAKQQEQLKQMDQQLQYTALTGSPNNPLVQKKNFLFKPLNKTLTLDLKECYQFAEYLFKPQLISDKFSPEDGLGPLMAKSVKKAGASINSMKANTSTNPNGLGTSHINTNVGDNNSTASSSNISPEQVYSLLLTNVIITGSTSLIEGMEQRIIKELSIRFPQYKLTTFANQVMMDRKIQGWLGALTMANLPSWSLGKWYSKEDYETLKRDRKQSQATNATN

Target: Snf6 with a C-terminal 3-Flag tag (S. cerevisiae) (UniProt P18888)
Test: affinity purification with mass spectrometry; Snf6-3Flag from yeast extract on ANTI-FLAG M2 resin, eluted with FLAG peptide, Superose 6 in 20 mM HEPES pH 7.4, 350 mM NaCl; SDS-PAGE bands identified by LC-MS/MS

| Molecule | binding |
| --- | --- |
| Taf14 (from UniProt P35189 1-244) | binds |
| Arp9 (from UniProt Q05123 1-467) | binds |
| Arp7 (from UniProt Q12406 1-477) | binds |
| Snf11 (protein, UniProt P38956 1-169) MSSEIAYSNTNTNTENENRNTGAGVDVNTNANANANATANATANATANATAELNLPTVDEQRQYKVQLLLHINSILLARVIQMNNSLQNNLQNNINNSNNNNIIRIQQLISQFLKRVHANLQCISQINQGVPSAKPLILTPPQLANQQQPPQDILSKLYLLLARVFEIW | binds |
| Rtt102 (protein, UniProt P53330 1-157) MDPQTLITKANKVSYYGNPTSKESWRYDWYQPSKVSSNVQQPQQQLGDMENNLEKYPFRYKTWLRNQEDEKNLQRESCEDILDLKEFDRRILKKSLMTSHTKGDTSKATGAPSANQGDEALSVDDIRGAVGNSEAIPGLSAGVNNDNTKESKDVKMN | binds |
